# Biological target: Nav1.5 (Homo sapiens, UniProt Q14524)
# Amino acid sequences for entries named in this document (tags omitted).
# UniProt Q14524, whole entry: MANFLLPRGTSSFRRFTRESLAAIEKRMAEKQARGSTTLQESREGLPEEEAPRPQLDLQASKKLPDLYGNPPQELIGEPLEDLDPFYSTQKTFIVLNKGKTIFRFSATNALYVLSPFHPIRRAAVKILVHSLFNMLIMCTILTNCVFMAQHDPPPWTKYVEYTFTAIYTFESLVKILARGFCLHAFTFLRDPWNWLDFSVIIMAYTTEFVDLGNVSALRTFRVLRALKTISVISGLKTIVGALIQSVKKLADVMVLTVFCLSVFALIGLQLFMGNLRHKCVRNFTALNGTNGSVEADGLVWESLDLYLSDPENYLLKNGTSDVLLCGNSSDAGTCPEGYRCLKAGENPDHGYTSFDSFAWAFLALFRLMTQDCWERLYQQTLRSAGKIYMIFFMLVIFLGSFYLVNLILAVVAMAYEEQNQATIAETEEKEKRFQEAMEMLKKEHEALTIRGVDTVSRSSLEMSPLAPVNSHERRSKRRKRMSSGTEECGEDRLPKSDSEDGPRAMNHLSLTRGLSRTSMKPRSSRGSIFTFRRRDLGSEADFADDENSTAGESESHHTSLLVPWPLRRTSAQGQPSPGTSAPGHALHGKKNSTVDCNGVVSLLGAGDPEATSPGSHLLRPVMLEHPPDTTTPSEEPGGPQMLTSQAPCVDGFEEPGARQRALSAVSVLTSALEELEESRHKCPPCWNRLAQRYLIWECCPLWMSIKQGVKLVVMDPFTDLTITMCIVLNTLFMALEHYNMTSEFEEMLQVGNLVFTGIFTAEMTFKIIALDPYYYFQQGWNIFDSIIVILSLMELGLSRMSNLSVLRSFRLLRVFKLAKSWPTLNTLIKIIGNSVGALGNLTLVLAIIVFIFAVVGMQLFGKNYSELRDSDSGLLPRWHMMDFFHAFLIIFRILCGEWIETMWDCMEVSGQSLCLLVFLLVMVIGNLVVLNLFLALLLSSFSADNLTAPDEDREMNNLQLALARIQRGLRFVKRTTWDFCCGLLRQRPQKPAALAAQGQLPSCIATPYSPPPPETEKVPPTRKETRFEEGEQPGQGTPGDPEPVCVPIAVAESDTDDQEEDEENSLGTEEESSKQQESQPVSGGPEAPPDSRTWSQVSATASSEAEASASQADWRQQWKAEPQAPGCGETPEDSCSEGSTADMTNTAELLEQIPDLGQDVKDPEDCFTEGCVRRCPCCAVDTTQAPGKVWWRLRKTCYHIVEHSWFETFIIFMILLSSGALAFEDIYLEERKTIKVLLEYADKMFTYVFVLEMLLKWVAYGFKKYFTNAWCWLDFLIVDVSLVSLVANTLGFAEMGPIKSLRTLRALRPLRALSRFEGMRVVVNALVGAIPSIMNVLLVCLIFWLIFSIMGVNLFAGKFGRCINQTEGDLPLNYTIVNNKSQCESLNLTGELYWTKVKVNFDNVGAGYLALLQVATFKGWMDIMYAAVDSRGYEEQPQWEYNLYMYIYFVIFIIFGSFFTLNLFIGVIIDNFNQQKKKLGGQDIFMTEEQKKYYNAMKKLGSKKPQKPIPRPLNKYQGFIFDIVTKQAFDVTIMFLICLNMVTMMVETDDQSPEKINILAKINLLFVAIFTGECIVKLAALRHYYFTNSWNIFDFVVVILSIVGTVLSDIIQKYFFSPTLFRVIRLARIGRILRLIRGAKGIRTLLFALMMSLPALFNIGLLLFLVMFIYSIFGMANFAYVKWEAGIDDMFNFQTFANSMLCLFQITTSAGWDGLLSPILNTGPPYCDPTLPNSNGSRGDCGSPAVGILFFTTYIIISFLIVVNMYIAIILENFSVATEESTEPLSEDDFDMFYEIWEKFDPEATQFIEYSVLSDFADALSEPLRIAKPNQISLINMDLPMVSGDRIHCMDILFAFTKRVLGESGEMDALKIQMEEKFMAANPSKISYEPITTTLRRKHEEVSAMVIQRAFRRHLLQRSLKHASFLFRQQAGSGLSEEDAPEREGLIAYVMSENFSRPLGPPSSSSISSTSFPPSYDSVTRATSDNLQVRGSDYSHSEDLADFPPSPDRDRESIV
# Assay: in vitro
# Details: cells (cell line not given) carrying the Nav1.5 channel, Mean % inhibition (positive control), n=2
structure (smiles),measurement,value
CCN(CC)CC(=O)Nc1c(C)cccc1C [Lidocaine],"inhibition at 5 min, 2000 µM",98.5%

# Reference: US8541395B2 (priority 2009, dated 2013)
